The values below come from patent US11185524B2 (Novus International, Inc., priority 2019, dated 2021).

The conditions of the data set: steers; approximately 43 g of active daily, top dressed on TMR d 7-14.

As to `CSCCC(O)C(=O)O` (centres unmarked) [MHA, Methionine hydroxy analog], the Body weight came out at 503.3 kg and the “Feed Intake” value came to 11.4 kg as-fed.
